# The supplement of paper PMC10849652
# By UniProt entry, the sequences of proteins in these tests, tags left out. Where a name states a change or a piece, a line headed by the entry shows the natural chain unless it says otherwise.
# UniProt P09429: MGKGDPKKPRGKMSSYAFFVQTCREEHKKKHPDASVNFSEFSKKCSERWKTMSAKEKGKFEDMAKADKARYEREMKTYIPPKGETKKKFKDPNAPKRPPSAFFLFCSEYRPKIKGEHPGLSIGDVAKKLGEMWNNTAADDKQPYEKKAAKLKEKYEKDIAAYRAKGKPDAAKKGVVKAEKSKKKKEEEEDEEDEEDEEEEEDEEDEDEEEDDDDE
# UniProt Q7LGA3: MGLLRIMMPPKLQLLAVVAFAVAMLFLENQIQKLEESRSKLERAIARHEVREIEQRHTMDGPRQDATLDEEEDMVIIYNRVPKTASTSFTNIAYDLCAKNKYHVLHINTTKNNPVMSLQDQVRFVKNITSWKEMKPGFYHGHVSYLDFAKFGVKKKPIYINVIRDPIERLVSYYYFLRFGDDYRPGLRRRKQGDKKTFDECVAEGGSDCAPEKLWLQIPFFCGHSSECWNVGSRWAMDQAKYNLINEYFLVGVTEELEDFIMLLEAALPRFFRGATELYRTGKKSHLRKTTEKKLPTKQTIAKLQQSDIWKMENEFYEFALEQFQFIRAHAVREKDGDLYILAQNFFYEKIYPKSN
# UniProt O43390: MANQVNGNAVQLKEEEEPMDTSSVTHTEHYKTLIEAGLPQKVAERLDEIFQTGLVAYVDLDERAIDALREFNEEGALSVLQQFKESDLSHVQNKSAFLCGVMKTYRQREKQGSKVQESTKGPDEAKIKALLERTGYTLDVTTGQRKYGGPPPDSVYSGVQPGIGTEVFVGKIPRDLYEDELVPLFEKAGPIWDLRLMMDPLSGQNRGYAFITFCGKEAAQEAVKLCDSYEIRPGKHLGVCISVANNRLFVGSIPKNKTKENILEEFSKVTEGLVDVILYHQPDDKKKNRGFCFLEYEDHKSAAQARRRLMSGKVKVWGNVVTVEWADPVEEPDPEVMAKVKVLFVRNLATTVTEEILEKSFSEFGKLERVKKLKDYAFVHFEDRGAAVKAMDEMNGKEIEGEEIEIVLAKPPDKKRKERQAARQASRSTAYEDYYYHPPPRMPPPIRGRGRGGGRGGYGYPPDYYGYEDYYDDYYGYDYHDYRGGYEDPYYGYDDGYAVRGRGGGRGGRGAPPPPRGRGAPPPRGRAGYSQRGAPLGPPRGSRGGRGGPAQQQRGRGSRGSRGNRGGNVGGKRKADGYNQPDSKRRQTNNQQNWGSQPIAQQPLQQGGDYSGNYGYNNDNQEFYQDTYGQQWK
# UniProt P11021: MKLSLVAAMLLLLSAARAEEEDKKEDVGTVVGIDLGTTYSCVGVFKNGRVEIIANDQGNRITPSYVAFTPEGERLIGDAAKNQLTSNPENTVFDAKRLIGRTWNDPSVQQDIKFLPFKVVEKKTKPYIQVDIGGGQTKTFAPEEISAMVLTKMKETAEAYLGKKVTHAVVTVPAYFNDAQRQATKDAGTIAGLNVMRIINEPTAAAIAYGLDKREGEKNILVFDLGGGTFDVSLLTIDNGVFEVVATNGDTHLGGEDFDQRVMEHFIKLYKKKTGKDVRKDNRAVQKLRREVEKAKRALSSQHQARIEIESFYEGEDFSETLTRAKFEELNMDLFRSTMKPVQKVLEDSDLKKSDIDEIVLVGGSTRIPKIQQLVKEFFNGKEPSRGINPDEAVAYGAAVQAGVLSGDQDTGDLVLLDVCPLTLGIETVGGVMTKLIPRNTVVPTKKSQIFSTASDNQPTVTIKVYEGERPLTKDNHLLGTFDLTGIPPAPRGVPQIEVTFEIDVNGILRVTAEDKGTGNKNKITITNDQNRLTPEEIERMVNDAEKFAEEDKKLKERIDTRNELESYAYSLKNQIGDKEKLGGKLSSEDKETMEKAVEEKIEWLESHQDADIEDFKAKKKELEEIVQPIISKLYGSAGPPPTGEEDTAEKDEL
# UniProt P05114: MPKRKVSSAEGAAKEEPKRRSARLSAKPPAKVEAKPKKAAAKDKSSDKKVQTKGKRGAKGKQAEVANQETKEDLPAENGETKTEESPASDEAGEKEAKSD
# UniProt Q92598: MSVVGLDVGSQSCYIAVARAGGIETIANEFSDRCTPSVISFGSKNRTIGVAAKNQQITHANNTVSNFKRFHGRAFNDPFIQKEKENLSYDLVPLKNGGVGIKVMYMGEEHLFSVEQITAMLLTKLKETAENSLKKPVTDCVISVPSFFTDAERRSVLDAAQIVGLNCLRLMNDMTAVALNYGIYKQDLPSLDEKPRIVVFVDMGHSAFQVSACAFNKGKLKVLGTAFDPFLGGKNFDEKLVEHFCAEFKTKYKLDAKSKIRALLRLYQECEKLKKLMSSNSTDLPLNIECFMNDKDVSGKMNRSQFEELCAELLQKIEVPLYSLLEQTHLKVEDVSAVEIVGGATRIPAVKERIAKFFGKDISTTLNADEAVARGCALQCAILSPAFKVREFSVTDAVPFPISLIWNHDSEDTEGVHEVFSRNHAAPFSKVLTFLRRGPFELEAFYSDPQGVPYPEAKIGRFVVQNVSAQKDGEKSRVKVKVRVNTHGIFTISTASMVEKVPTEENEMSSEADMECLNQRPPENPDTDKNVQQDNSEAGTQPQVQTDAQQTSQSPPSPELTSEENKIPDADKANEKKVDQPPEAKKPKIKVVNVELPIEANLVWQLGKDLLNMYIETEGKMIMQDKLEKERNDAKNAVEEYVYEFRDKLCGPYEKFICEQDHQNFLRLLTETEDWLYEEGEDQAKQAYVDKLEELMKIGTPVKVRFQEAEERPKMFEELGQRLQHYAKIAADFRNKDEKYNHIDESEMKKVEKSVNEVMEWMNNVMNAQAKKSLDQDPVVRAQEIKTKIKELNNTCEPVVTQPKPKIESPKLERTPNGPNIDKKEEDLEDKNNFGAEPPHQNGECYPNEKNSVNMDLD
# UniProt Q53FT3: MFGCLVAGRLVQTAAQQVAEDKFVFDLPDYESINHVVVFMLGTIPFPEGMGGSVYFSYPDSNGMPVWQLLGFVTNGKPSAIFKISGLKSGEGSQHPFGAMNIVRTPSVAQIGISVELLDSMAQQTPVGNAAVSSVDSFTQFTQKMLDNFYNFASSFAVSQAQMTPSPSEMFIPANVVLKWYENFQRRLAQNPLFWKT
# UniProt P35914: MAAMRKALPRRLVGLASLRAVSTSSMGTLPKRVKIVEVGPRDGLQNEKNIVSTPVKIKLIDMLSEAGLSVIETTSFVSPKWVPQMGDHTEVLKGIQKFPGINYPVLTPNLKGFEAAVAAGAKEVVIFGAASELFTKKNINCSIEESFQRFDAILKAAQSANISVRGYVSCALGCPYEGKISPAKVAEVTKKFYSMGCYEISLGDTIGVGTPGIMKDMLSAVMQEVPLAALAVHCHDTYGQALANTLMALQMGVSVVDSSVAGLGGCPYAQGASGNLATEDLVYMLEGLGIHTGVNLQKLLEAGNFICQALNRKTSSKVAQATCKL
# UniProt O60921: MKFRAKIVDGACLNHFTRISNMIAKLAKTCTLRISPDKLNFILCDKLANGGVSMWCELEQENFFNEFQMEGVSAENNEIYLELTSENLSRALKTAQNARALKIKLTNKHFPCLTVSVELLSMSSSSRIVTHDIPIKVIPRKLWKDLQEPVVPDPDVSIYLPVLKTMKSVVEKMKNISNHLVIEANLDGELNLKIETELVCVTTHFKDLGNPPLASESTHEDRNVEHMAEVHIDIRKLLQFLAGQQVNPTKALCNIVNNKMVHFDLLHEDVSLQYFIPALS
# UniProt P49773: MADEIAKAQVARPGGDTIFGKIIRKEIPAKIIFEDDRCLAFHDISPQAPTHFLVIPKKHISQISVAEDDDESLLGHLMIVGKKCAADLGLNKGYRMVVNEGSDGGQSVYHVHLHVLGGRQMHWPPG
# UniProt P56937: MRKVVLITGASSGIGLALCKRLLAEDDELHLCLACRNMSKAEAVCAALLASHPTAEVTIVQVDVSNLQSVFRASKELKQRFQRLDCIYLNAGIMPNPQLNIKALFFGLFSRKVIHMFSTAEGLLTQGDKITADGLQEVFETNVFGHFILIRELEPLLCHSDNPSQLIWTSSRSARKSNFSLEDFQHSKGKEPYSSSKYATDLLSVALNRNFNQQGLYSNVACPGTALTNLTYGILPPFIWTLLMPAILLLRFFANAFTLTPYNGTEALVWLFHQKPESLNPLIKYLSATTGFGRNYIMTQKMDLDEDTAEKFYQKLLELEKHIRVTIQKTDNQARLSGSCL
# UniProt Q99714: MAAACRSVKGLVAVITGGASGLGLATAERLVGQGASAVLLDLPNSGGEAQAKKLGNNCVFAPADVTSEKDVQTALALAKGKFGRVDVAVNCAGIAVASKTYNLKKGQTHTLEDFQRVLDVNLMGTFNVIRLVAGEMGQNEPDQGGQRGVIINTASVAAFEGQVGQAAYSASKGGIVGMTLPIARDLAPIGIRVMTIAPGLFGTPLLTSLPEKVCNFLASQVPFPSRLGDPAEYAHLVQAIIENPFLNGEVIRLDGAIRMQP
# UniProt P14625, whole entry, looked up: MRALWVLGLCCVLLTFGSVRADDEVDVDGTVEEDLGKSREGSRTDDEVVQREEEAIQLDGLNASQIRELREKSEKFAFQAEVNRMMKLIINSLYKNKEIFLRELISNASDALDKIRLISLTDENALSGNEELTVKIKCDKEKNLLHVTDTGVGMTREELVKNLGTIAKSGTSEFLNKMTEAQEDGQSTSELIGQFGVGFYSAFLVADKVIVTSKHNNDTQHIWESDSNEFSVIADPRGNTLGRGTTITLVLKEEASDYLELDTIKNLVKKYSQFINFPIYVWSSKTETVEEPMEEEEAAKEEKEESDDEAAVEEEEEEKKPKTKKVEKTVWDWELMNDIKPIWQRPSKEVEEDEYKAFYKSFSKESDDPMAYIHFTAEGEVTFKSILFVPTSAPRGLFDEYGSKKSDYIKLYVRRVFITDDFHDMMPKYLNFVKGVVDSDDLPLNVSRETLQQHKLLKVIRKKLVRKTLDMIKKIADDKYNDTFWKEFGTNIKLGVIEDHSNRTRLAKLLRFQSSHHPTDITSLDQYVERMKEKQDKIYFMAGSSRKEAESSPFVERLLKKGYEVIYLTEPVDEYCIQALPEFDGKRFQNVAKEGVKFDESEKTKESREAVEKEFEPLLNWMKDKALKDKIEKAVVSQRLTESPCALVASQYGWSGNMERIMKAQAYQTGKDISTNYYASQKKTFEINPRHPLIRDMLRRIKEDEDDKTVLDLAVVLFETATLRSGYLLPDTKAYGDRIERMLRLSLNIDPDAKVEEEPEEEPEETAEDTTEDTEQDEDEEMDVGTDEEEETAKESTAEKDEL
# UniProt P52597: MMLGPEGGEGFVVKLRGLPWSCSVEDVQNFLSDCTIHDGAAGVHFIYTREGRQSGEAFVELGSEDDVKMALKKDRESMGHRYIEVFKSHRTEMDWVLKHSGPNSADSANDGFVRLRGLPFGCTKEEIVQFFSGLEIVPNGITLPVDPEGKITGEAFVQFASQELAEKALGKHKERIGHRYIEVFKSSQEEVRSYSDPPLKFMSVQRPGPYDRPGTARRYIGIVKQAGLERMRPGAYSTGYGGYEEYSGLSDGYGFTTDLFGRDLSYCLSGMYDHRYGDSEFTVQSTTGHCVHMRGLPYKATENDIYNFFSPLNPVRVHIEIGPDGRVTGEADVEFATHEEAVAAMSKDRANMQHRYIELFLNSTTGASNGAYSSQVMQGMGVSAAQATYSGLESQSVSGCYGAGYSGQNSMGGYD
# UniProt P14735, whole entry, looked up: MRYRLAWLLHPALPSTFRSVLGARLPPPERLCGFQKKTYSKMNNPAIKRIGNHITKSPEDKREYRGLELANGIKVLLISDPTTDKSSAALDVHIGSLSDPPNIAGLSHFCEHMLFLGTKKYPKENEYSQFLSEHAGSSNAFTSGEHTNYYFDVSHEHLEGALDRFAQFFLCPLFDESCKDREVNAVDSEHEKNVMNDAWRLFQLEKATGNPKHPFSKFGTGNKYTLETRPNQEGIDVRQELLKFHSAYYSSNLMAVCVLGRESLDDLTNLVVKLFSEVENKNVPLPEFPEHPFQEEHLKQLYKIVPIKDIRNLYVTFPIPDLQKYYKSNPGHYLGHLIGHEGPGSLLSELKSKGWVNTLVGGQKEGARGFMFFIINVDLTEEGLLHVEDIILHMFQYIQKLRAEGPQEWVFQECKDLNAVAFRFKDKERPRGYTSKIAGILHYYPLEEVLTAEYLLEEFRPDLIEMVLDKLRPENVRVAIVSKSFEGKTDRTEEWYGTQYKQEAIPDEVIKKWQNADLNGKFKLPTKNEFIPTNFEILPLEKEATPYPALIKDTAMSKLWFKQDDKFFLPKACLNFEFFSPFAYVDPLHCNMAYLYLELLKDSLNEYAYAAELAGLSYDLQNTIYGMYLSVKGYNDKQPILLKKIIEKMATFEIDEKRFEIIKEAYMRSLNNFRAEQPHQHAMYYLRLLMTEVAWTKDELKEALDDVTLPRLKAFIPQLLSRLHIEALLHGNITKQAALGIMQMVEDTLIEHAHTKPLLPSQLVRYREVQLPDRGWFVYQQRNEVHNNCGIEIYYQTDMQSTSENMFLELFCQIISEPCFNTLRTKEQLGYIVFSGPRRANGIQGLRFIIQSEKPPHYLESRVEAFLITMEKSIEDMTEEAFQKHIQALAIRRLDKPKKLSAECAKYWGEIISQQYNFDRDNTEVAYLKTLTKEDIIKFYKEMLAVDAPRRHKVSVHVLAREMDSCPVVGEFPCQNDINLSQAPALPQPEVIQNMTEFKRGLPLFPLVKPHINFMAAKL
# This is one part of the list.
# Tests used:
# Assay in all cases: log2 fold change, soluble protein after heating vs DMSO (PISA); higher = thermal stabilisation; K562 cells, 10 uM, 30 min; active = over 0.2 and 3.5 SD of the protein, either way, in both replicates (recomputed)
# [1] = compound: C1=CC=C(C=C1)[C@H](COC2=CC3=C(C=C2)NC(=O)N3)NC(=O)C4=CC=CN(C4=O)CC5=CC(=C(C=C5)F)F
# Method in brief: (§1)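 Thermal stability values are relative to control samples and come from duplicates. They are expressed as log2 fold changes. For measurement, K562 cells (2×10^6 cells/mL) received 10 μM compound for 30 min, and aliquots were heated for 3 min over 48°C-58°C, pooled, and extracted at 4°C in PBS with 0.5% NP-40. Soluble protein, the supernatant after 21,000xg for 90 min, was quantified by TMTpro 16plex LC-MS/MS with equalised channel sums.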
# [2] = compound: CC1=C(SC2=C1C(=N[C@H](C3=NN=C(N32)C)CC(=O)N)C4=CC=C(C=C4)Cl)C
# Method in brief: as §1
# [3] = compound: CC1=C2C(=CC=C1)N=C(N(C2=O)C3=CC=CC=C3C)CN4C=NC5=C(N=CN=C54)N
# Method in brief: as §1
# [4] = compound: Cc1sc2c(c1C)C(c1ccc(Cl)cc1)=N[C@@H](CC(=O)OC(C)(C)C)c1nnc(C)n1-2
# Method in brief: as §1
# [5] = compound: c1ccc([C@@H]2C[C@H]2NC2CCNCC2)cc1
# Method in brief: as §1
Target,log2 fold change [1],log2 fold change [2],log2 fold change [3],log2 fold change [4],log2 fold change [5]
HMGB1 (UniProt P09429),inactive: -0.057,inactive: -0.037,inactive: -0.004,inactive: -0.063,inactive: -0.08
HPCAL1 (UniProt P37235),inactive: 0.007,inactive: -0.011,inactive: 0.047,inactive: -0.011,inactive: 0.032
HS2ST1 (UniProt Q7LGA3),inactive: 0.06,inactive: 0.015,inactive: -0.019,inactive: 0.036,inactive: 0.045
HNRNPR isoform 2 (UniProt O43390),inactive: 0.073,inactive: -0.205,inactive: -0.105,inactive: 0.122,inactive: 0.022
ICAM4 (UniProt Q14773),inactive: -0.009,inactive: 0.019,inactive: 0.023,inactive: -0.102,inactive: -0.034
HSP90AB1 (UniProt P08238),inactive: -0.031,inactive: 0.033,inactive: 0.025,inactive: -0.017,inactive: -0.043
HNRNPLL (UniProt Q8WVV9),inactive: -0.105,inactive: -0.067,inactive: 0.078,inactive: -0.098,inactive: -0.015
HSPA5 (UniProt P11021),inactive: -0.037,inactive: -0.004,inactive: -0.027,inactive: -0.003,inactive: 0.013
HMGN1 (UniProt P05114),inactive: 0.042,inactive: -0.023,inactive: -0.119,inactive: 0.027,inactive: 0.048
HSPH1 (UniProt Q92598),inactive: -0.009,inactive: 0,inactive: 0.045,inactive: -0.009,inactive: 0.013
HIKESHI (UniProt Q53FT3),inactive: 0.014,inactive: 0.12,inactive: 0.149,inactive: -0.091,inactive: -0.027
HMGCL (UniProt P35914),inactive: -0.029,inactive: 0.04,inactive: -0.08,inactive: -0.005,inactive: -0.035
HUS1 (UniProt O60921),inactive: 0.002,inactive: 0.052,inactive: 0.062,inactive: -0.021,inactive: -0.009
HNRNPC isoform 2 (UniProt P07910),inactive: 0.102,inactive: -0.441,inactive: -0.171,inactive: 0.07,inactive: 0.139
HINT1 (UniProt P49773),inactive: -0.041,inactive: 0.062,inactive: -0.011,inactive: -0.082,inactive: 0.018
HMG20A (UniProt Q9NP66),inactive: 0.07,inactive: -0.085,inactive: 0.048,inactive: 0.048,active: 0.536
HMBS (UniProt F5H226),inactive: 0.294,inactive: -0.314,inactive: 0.343,inactive: 0.039,inactive: 0.084
HUWE1 (UniProt Q7Z6Z7),inactive: -0.032,inactive: 0.022,inactive: 0.041,inactive: -0.002,inactive: -0.019
HSD17B7 (UniProt P56937),inactive: -0.037,inactive: 0.126,inactive: 0.027,inactive: -0.039,inactive: 0.001
HSD17B10 (UniProt Q99714),inactive: -0.021,inactive: 0.043,inactive: -0.017,inactive: -0.012,inactive: -0.025
HSP90AA4P (UniProt Q58FG1),inactive: -0.017,inactive: 0.021,inactive: 0.005,inactive: 0.109,inactive: 0.004
HSP90B1 (UniProt P14625),inactive: 0.017,inactive: 0.012,inactive: -0.009,inactive: -0.007,inactive: -0.013
HNRNPF (UniProt P52597),inactive: -0.032,inactive: -0.049,inactive: -0.019,inactive: -0.02,inactive: -0.017
IDE (UniProt P14735),inactive: -0.069,inactive: 0.034,inactive: 0.068,inactive: -0.006,inactive: -0.044

# A second format for part of the listing above.
Target | log2 fold change [1] | log2 fold change [2] | log2 fold change [3] | log2 fold change [4] | log2 fold change [5]
HSPA5 (UniProt P11021) | inactive: -0.037 | inactive: -0.004 | inactive: -0.027 | inactive: -0.003 | inactive: 0.013
HMGN1 (UniProt P05114) | inactive: 0.042 | inactive: -0.023 | inactive: -0.119 | inactive: 0.027 | inactive: 0.048
